Assay results as given in patent publication US8703913B2, “Sensor” (Medical Research Council, priority 2008, dated 2014).
Read-outs that look alike come from different tables or passages of the source.

Tests used:
[1] = reported (19); cited from earlier work
[2] = Filament formation by right angle light scattering; settings: 4 mM ATP, 20° C., light scattering at 340 nm

B1: wild-type ParM: prokaryotic actin homologue encoded on Escherichia coli plasmid R1, accession P11904 (protein, listed as Escherichia coli)
chain: MLVFIDDGSTNIKLQWQESDGTIKQHISPNSFKREWAVSFGDKKVFNYTLNGEQYSFDPISPDAVVTTNIAWQYSDVNVVAVHHALLTSGLPVSEVDIVCTLPLTEYYDRNNQPNTENIERKKANFRKKITLNGGDTFTIKDVKVMPESIPAGYEVLQELDELDSLLIIDLGGTTLDISQVMGKLSGISKIYGDSSLGVSLVTSAVKDALSLARTKGSSYLADDIIIHRKDNNYLKQRINDENKISIVTEAMNEALRKLEQRVLNTLNEFSGYTHVMVIGGGAELICDAVKKHTQIRDERFFKTNNSQYDLVNGMYLIGN
critical concentration of filament formation in presence of ADP [1]: ~100 µM | critical concentration of filament formation in presence of ATP [1]: 2.3 µM | critical concentration of filament formation in presence of ATP [2]: 2.5 µM
